# Experimental data: patent EP0438230B1, “Indole-substituted five-membered heteroaromatic compounds” (MERCK SHARP & DOHME LTD., priority 1990, dated 1991)
# Some entries share one result that the patent states for a list of compounds.
# Test system: 5-HT1-like receptor
# Test: Agonist activity: contraction of the isolated rabbit saphenous vein
# Details: contraction of saphenous vein of New Zealand White rabbits; from plots of percentage 5-HT (1 µm) response against agonist concentration
row,Structure (SMILES),pEC50 (-log10EC50)
1,"NCCc1c[nH]c2ccc(-c3nc(Cc4ccccc4)no3)cc12 [Example 1, 2-[5-(5-(3-Benzyl-1,2,4-oxadiazol)-yl)-1H-indol-3-yl]ethylamine]",not less than 5.0
2,NCCc1c[nH]c2ccc(Cc3nc(Cc4ccccc4)no3)cc12 [Example 4],not less than 5.0
3,NCCc1c[nH]c2ccc(Cc3nc(N)no3)cc12 [Example 6],not less than 5.0
4,"COc1ccc(Cc2noc(-c3ccc4[nH]cc(CCN)c4c3)n2)cc1 [Example 19, 2-[5-[5-(3-(4-Methoxybenzyl)-1,2,4-oxadiazol)yl]-1H-indol-3-yl]ethylamine]",not less than 5.0
5,"CC(=O)Nc1ccc(Cc2noc(-c3ccc4[nH]cc(CCN)c4c3)n2)cc1 [Example 20, 2-[5-[5-(3-(4-Acetylaminobenzyl)-1,2,4-oxadiazol)yl]-1H-indol-3-yl]ethylamine]",not less than 5.0
6,"CS(=O)(=O)Nc1ccc(Cc2noc(-c3ccc4[nH]cc(CCN)c4c3)n2)cc1 [Example 21, 2-[5-[5-(3-(4-Methylsulphonylaminobenzyl)-1,2,4-oxadiazol)yl]-1H-indol-3-yl]ethylamine]",not less than 5.0
7,"CC(=O)Nc1ccc(Cc2noc(-c3ccc4[nH]cc(CCN(C)C)c4c3)n2)cc1 [Example 27, N,N-Dimethyl-2-[5-[5-(3-(4-Acetylaminobenzyl)-1,2,4-oxadiazol)yl]-1H-indol-3-yl]ethylamine]",not less than 5.0
8,"CN(C)CCc1c[nH]c2ccc(-c3nc(Cc4ccc(NS(C)(=O)=O)cc4)no3)cc12 [Example 28, N,N-Dimethyl-2-[5-[5-(3-(4-Methylsulphonylaminobenzyl)-1,2,4-oxadiazol)yl]-1H-indol-3-yl]ethyl amine]",not less than 5.0
9,"CN(C)CCc1c[nH]c2ccc(Cc3nc(N)no3)cc12 [Example 30, N,N-Dimethyl-2-[5-[5-(3-Amino-1,2,4-oxadiazol)ylmethyl]-1H-indol-3-yl]ethylamine]",not less than 5.0
10,CNC(=O)c1ccc(Cc2noc(-c3ccc4[nH]cc(CCN)c4c3)n2)cc1 [Example 39],not less than 5.0
11,"CNC(=O)c1ccc(-c2noc(-c3ccc4[nH]cc(CCN)c4c3)n2)cc1 [Example 40, 2-[5-(5-(3-(4-N-Methylcarbamoylphenyl)-1,2,4-oxadiazol)yl)-1H-indol-3-yl]ethylamine]",not less than 5.0
12,"CNS(=O)(=O)c1ccc(Cc2noc(-c3ccc4[nH]cc(CCN)c4c3)n2)cc1 [Example 41, 2-[5-(5-(3-(4-Methylaminosulphonylbenzyl)-1,2,4-oxadiazol)yl)-1H-indol-3-yl]ethylamine]",not less than 5.0
13,"CN(C)S(=O)(=O)c1ccc(Cc2noc(-c3ccc4[nH]cc(CCN)c4c3)n2)cc1 [Example 42, 2-[5-(5-(3-(4-Dimethylaminosulphonylbenzyl)-1,2,4-oxadiazol)yl)-1H-indol-3-yl]ethylamine]",not less than 5.0
14,"NCCc1c[nH]c2ccc(-c3nc(Cc4ccc(NC(N)=O)cc4)no3)cc12 [Example 44, 2-[5-(5-(3-(4-Carbamoylaminobenzyl)-1,2,4-oxadiazol)yl)-1H-indol-3-yl]ethylamine]",not less than 5.0
15,"NCCc1c[nH]c2ccc(-c3nc(N)no3)cc12 [Example 45, 2-[5-(5-(3-Amino-1,2,4-oxadiazol)-yl)-1H-indol-3-yl]ethylamine]",not less than 5.0
16,"CN(C)CCc1c[nH]c2ccc(-c3nc(N)no3)cc12 [Example 49, N,N-Dimethyl-2-[5-(5-(3-amino-1,2,4-oxadiazol)yl)-1H-indol-3-yl]ethylamine]",not less than 5.0
17,"CN(C)CCc1c[nH]c2ccc(-c3nc(Cc4ccc(NC(N)=O)cc4)no3)cc12 [Example 52, N,N-Dimethyl-2[5-(5-(3-(4-carbamoylaminobenzyl)-1,2,4-oxadiazol)yl)-1H-indol-3-yl]ethylamine]",not less than 5.0
18,"CN(C)CCc1c[nH]c2ccc(-c3nc(CCNC(=O)OC(C)(C)C)no3)cc12 [Example 53, N,N-dimethyl-2-[5-(5-(3-(2-t-butyloxycarbonylamino)ethyl-1,2,4-oxadiazol)yl)-1H-indol-3-yl]ethylamine]",not less than 5.0
19,"CN(C)CCc1c[nH]c2ccc(-c3nc(CCNS(C)(=O)=O)no3)cc12 [Example 56, N,N-dimethyl-2-[5-(5-(3-(2-methylsulphonylamino)ethyl-1,2,4-oxadiazol)yl)-1H-indol-3-yl]ethylamine]",not less than 5.0
20,"CN(C)CCc1c[nH]c2ccc(CCc3nc(N)no3)cc12 [Example 61, N,N-Dimethyl-2-[5-(2-(5-(3-amino-1,2,4-oxadiazol)yl)ethyl)-1H-indol-3-yl]ethylamine]",not less than 5.0
21,"CNS(=O)(=O)c1ccc(Cc2noc(Cc3ccc4[nH]cc(CCN(C)C)c4c3)n2)cc1 [Example 65, N,N-Dimethyl-2-[5(5-(3(4-methylaminosulphonylbenzyl)-1,2,4-oxadiazol)ylmethyl)-1H-indol-3-yl]ethylamine]",not less than 5.0
22,"CN(C)CCc1c[nH]c2ccc(Cc3nc(CNC(=O)c4ccccc4)no3)cc12 [Example 88, N,N-Dimethyl-2-[5-(5-(3-phenylcarboxamidomethyl-1,2,4-oxadiazol)ylmethyl)-1H-indol-3-yl]ethylamine]",not less than 5.0
23,"CN(C)CCc1c[nH]c2ccc(Cc3nc(N4CCN(C(=O)OC(C)(C)C)CC4)no3)cc12 [Example 93, N,N-Dimethyl-2-[5-(5-(3-(4-^t-butyloxycarbonyl)piperazin-1,4-yl-1,2,4-oxadiazol)ylmethyl)-1H-indol-3-yl]ethylamine]",not less than 5.0
